Results reported in article PMC12839305.
These are yes or no findings as the source states them, for the method shown.

Amino acid sequences for entries named in this document (tags omitted). Residues count along the entry.
UniProt P21401, residues 154-469: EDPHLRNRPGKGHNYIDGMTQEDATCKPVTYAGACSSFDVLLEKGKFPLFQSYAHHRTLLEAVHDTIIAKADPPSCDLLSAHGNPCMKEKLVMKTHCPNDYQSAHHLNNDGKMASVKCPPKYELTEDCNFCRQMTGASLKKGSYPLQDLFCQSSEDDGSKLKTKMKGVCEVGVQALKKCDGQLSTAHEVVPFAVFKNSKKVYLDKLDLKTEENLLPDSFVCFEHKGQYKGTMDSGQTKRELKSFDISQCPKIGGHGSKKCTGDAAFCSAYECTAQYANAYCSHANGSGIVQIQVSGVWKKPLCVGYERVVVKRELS
LRP1 cluster II (CL II, 786–1165 aa) (Q07954, residues 786-1165): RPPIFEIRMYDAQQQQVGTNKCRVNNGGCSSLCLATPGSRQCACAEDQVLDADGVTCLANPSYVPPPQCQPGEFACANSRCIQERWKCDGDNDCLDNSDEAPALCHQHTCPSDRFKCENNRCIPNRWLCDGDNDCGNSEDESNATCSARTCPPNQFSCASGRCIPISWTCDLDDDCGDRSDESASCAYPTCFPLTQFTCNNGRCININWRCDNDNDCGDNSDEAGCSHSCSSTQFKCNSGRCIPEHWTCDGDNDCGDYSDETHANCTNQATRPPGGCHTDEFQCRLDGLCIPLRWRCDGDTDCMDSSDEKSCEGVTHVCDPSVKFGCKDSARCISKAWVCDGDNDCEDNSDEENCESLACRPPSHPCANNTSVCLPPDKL
LRP1 cluster IV (CL IV, 3332–3779 aa) (Q07954, residues 3332-3779): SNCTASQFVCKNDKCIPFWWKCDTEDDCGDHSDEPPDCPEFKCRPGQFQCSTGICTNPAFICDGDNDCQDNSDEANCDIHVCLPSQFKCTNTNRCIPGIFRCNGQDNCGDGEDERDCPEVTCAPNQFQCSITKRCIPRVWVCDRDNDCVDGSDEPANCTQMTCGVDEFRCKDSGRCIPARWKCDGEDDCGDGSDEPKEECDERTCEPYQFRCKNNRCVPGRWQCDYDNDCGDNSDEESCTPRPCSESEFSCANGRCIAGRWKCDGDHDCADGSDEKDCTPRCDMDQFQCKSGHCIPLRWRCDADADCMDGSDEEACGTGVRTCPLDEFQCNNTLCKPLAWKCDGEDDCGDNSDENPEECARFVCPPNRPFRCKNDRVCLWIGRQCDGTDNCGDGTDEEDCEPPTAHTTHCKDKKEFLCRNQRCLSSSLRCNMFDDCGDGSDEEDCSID
LRP1 CL IV-C, repeats A29–A31 (3652–3778 aa) (Q07954, residues 3652-3778): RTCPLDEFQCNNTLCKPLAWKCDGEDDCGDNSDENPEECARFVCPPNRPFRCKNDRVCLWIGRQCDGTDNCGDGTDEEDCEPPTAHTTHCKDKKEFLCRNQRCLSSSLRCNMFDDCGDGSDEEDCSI

Key:
[1] = molecular target: RVFV glycoprotein Gn head domain (154–469 aa) (Rift Valley fever virus) (UniProt P21401); test: BLI; both purified
[2] = molecular target: RVFV glycoprotein Gn head domain (154–469 aa) (Rift Valley fever virus) (UniProt P21401); test: BLI; […]; 300 s association, 300 s dissociation; […], global 1:1 model; Octet RED96; both purified

| Substance | binding [1] | binding [2] |
| --- | --- | --- |
| LRP1 cluster IV (CL IV, 3332–3779 aa) (from UniProt Q07954 3332-3779) (domain or fragment) | no binding (condition: with 4 mM EGTA) | – |
| LRP1 CL IV-C, repeats A29–A31 (3652–3778 aa) (from UniProt Q07954 3652-3778) (domain or fragment) | – | no binding |
| LRP1 cluster II (CL II, 786–1165 aa) (from UniProt Q07954 786-1165) (domain or fragment) | no binding (condition: with 4 mM EGTA) | – |
